{"sequences": {"note": "Sequences of proteins named here, by UniProt entry; tags and fusion partners are left off.", "UniProt Q8N5T2": "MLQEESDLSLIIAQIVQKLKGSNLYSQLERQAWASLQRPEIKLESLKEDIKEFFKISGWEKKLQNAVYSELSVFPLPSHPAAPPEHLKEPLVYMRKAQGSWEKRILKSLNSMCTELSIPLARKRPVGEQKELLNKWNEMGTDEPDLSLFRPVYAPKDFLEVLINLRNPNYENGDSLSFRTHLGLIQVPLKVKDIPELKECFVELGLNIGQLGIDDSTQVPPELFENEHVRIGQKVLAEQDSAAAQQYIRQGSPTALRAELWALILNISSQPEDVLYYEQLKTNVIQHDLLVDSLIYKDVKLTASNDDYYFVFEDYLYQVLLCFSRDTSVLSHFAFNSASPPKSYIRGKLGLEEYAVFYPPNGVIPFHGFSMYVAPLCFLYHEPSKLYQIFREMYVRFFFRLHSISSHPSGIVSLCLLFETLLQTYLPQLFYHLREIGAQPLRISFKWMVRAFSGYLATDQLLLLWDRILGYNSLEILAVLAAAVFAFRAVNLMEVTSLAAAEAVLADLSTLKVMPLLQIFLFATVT", "UniProt Q6NSI8": "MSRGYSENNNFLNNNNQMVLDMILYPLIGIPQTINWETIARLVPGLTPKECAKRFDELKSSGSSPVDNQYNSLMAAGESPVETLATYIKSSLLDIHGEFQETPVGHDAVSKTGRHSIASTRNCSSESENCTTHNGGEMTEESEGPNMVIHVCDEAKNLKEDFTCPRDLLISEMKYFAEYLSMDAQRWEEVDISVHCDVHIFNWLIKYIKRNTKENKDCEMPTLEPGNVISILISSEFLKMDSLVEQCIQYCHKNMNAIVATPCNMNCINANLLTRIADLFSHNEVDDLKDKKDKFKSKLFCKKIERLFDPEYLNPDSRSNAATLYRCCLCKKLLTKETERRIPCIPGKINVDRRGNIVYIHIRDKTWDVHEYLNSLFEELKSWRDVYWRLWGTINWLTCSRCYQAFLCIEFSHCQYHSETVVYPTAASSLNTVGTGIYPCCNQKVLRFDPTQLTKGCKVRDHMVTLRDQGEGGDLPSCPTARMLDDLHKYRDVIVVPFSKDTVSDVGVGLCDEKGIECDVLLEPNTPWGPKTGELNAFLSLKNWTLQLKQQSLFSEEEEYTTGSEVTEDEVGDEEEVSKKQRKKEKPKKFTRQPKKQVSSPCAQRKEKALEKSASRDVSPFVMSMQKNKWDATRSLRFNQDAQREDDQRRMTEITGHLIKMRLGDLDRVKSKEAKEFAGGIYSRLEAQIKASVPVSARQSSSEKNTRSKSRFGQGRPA", "UniProt Q9BSH3": "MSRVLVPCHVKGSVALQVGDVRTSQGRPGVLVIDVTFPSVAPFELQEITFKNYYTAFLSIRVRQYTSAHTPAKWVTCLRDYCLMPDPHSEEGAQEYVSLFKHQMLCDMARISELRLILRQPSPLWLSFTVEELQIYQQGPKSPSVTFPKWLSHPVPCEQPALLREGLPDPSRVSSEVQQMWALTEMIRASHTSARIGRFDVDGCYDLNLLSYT", "UniProt O95922": "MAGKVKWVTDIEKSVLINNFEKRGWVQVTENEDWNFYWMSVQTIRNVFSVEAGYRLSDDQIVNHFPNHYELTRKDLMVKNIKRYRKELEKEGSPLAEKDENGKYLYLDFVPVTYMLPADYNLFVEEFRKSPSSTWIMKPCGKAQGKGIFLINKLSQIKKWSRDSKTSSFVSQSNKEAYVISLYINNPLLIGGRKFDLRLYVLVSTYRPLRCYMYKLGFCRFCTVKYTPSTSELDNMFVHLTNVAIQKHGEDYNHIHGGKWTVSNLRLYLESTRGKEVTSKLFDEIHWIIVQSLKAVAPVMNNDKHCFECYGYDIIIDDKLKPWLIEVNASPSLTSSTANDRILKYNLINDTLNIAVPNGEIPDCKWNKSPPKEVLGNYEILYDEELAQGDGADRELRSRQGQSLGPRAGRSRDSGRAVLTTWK", "UniProt Q3SXY8": "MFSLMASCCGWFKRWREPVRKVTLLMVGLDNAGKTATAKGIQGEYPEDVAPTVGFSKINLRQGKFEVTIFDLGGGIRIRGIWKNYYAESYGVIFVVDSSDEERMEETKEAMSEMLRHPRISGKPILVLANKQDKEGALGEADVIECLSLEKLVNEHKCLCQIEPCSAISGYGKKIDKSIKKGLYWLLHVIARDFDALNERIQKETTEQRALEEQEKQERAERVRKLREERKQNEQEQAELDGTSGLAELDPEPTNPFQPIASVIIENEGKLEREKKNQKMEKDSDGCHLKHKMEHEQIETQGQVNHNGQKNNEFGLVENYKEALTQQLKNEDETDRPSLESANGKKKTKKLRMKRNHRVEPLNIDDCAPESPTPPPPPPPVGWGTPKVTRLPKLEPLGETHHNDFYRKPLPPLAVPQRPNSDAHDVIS"}, "source": "paper doi:10.1101/2025.03.03.641315", "note": "These are yes or no findings as the source states them, for the method shown. In cells and extracts the contact can be indirect. Some binding calls cover weakened binding; strength is not graded here."}
{"target": "GFP-TBC1D19 (stably expressed in RPE-1 cells) (UniProt Q8N5T2)", "assay": "co-IP"}
{"molecule": "KIAA1841/SANBR (from UniProt Q6NSI8 1-718)", "binding": "binds"}
{"molecule": "NICN1 (from UniProt Q9BSH3 1-213)", "binding": "binds"}
{"molecule": "TTLL1 (from UniProt O95922 1-423)", "binding": "binds"}
{"molecule": "C11orf49/CSTPP1 (protein, UniProt Q9H6J7 1-331) MLSPERLALPDYEYLAQRHVLTYMEDAVCQLLENREDISQYGIARFFTEYFNSVCQGTHILFREFSFVQATPHNRVSFLRAFWRCFRTVGKNGDLLTMKEYHCLLQLLCPDFPLELTQKAARIVLMDDAMDCLMSFSDFLFAFQIQFYYSEFLDSVAAIYEDLLSGKNPNTVIVPTSSSGQHRQRPALGGAGTLEGVEASLFYQCLENLCDRHKYSCPPPALVKEALSNVQRLTFYGFLMALSKHRGINQALGALPDKGDLMHDPAMDEELERLLAQVPGLVNSVTASPEASCLPSRTPPRVGSPWRPLHHSRKVDGESDGSTEETDESET", "binding": "binds"}
{"molecule": "LRRC49/CSTPP2 (protein, UniProt Q8IUZ0 1-686) MIPGKYRSVSGRAANNVNCGLHLVIQTSSLPEKNKVEFKLNKDTSSFPGRLLQHDLERNYSSRQGDHINLVSSSLSSFPILQRSSEEKILYSDRLSLERQKLTVCPIINGEDHLRLLNFQHNFITRIQNISNLQKLISLDLYDNQIEEISGLSTLRCLRVLLLGKNRIKKISNLENLKSLDVLDLHGNQITKIENINHLCELRVLNLARNFLSHVDNLNGLDSLTELNLRHNQITFVRDVDNLPCLQHLFLSFNNISSFDSVSCLADSSSLSDITFDGNPIAQESWYKHTVLQNMMQLRQLDMKRITEEERRMASVLAKKEEEKKRESHKQSLLKEKKRLTINNVARQWDLQQQRVANIATNEDRKDSDSPQDPCQIDGSTLSAFPEETGPLDSGLNNALQGLSVIDTYLVEVDGDTLSLYGSGALESLDRNWSVQTAGMITTVSFTFIEFDEIVQVLPKLKIKFPNSLHLKFKETNLVMLQQFNALAQLRRIDQLTIDPQGNPVVNFTLWKYYVLFRLSHFSMQKINGTEVTQNDMIMAERLFGILAHVASSELPQYRLISILGDARKKQFRYLLESKGKKPGIINEENNDSKRLVGENTNRATLNYTTRDFYNEKLEEIKEKKKFCKTYIEDLVKEATEINMKNEALQKLWPQMFIELVRDAVIEIRNKNSYMKLCLQQITDQK", "binding": "binds"}
{"molecule": "TPGS1 (protein, UniProt Q6ZTW0 1-290) MAAVEKRRQAVPPPAGFTDSGRQSVSRAAGAAESEEDFLRQVGVTEMLRAALLKVLEARPEEPIAFLAHYFENMGLRSPVNGGAGEPPGQLLLQQQRLGRALWHLRLAHHSQRAAFNNNVSVAYECLSAGGRRKRPGLDGRTYSELLRRICRDGQAPEEVVAPLLRKVQCRDHEAVPLSVFRAGTLTCFVLLEFVARAGALFQLLEDSAAAVADRRVGQAVLDTLEGALQASDAAAPARFLEAGSRLGPDSLALALDRAVGGRRPSAPMTREEFLERAAALFIAKVKPVG", "binding": "binds"}
{"target": "GFP-TBC1D19 (transfected in 293T cells) (UniProt Q8N5T2)", "assay": "co-IP"}
{"molecule": "mCherry-Arl13b (from UniProt Q3SXY8 1-428)", "binding": "binds"}
